This is an account of results in PMC8294009 (Chemical Science, 2021).

Some peptides are written in HELM: one residue between dots, names in brackets for other building blocks, links after the first $. *1 amine or outer side, *2 acyl side, *3 side chain or, on linkers, in order; H or OH if unused. Bridges are numbered along the chain shown (N, C = ends). X1 = O=C(C=NOCCCCCCOc1cc(C[*:2])cc(C[*:3])c1)[*:1]; X3 = O=C(C=NOCCCOc1cc(C[*:2])cc(C[*:3])c1)[*:1]; X2 = O=C(C=NOCc1cc(C[*:2])cc(C[*:3])c1)[*:1]

One data set in a line: peptide synthesis. To be noted: cyclisation step.
“HDCYLEC-NH2 (linker N-3-7 via X2; SMILES CC(C)C[C@@H]1NC(=O)[C@H](Cc2ccc(O)cc2)NC(=O)[C@@H]2CSCc3cc(cc(c3)CSC[C@@H](C(N)=O)NC(=O)[C@H](CCC(=O)O)NC1=O)CON=CC(=O)N[C@@H](Cc1c[nH]cn1)C(=O)N[C@@H](CC(=O)O)C(=O)N2)” yielded a cyclisation yield of 43%.

As for “PEPTIDE1{S.H.D.C.Y.L.E.C.[am]}|CHEM1{[mXyl]}$PEPTIDE1,CHEM1,4:R3-1:R1|PEPTIDE1,CHEM1,8:R3-1:R2$$$V2.0”, the cyclisation yield came out at 27%.

Take “PEPTIDE1{S.I.C.R.F.F.C.G.G.G.[am]}|CHEM1{[PFS]}$PEPTIDE1,CHEM1,3:R3-1:R1|PEPTIDE1,CHEM1,7:R3-1:R2$$$V2.0”: the cyclisation yield was 40%.

Consider “PEPTIDE1{S.T.C.Q.G.E.C.G.G.G.[am]}|CHEM1{[PFS]}$PEPTIDE1,CHEM1,3:R3-1:R1|PEPTIDE1,CHEM1,7:R3-1:R2$$$V2.0”, for which the cyclisation yield amounted to 31%.

For “TCQGECGGG-NH2 (linker N-2-6 via X3; SMILES C[C@@H](O)[C@@H]1NC(=O)C=NOCCCOc2cc3cc(c2)CSC[C@H](NC1=O)C(=O)N[C@@H](CCC(N)=O)C(=O)NCC(=O)N[C@@H](CCC(=O)O)C(=O)N[C@H](C(=O)NCC(=O)NCC(=O)NCC(N)=O)CSC3)”, the cyclisation yield worked out at 47%.

Substance “WDYRECYLEC-NH2 (linker N-6-10 via X1; SMILES CC(C)C[C@@H]1NC(=O)[C@H](Cc2ccc(O)cc2)NC(=O)[C@@H]2CSCc3cc(cc(c3)OCCCCCCON=CC(=O)N[C@@H](Cc3c[nH]c4ccccc34)C(=O)N[C@@H](CC(=O)O)C(=O)N[C@@H](Cc3ccc(O)cc3)C(=O)N[C@@H](CCCNC(=N)N)C(=O)N[C@@H](CCC(=O)O)C(=O)N2)CSC[C@@H](C(N)=O)NC(=O)[C@H](CCC(=O)O)NC1=O)” returned a cyclisation yield of 42%.

The substance “WDYRECYLEC-NH2 (linker N-6-10 via X2; SMILES CC(C)C[C@@H]1NC(=O)[C@H](Cc2ccc(O)cc2)NC(=O)[C@@H]2CSCc3cc(cc(c3)CSC[C@@H](C(N)=O)NC(=O)[C@H](CCC(=O)O)NC1=O)CON=CC(=O)N[C@@H](Cc1c[nH]c3ccccc13)C(=O)N[C@@H](CC(=O)O)C(=O)N[C@@H](Cc1ccc(O)cc1)C(=O)N[C@@H](CCCNC(=N)N)C(=O)N[C@@H](CCC(=O)O)C(=O)N2)” came in with a cyclisation yield of 54%.

“YCKRAHKNC-NH2 (linker N-2-9 via X1; SMILES C[C@@H]1NC(=O)[C@H](CCCNC(=N)N)NC(=O)[C@H](CCCCN)NC(=O)[C@@H]2CSCc3cc(cc(c3)OCCCCCCON=CC(=O)N[C@@H](Cc3ccc(O)cc3)C(=O)N2)CSC[C@@H](C(N)=O)NC(=O)[C@H](CC(N)=O)NC(=O)[C@H](CCCCN)NC(=O)[C@H](Cc2c[nH]cn2)NC1=O)” gave a cyclisation yield of 14%.

The same data set, now with this note: cyclisation step, bicyclic, sequence written open.
For the substance Ac-CNTWNPWCPWDAPLCam-NH2, the cyclisation yield stood at 38%.

Ac-CSWPARCLHQDLC-NH2 showed a cyclisation yield of 33%.

Substance H-SICRFFCGGG-NH2 returned a cyclisation yield of 55%.

H-SNTWNPWCPWDAPL-cam had a cyclisation yield of 41%.

Regarding H-SPCKKAHGAC-NH2, the cyclisation yield is 9%.

Consider H-SPCQRGHMFC-NH2, for which the cyclisation yield was found to be 8.6%.

As for H-SWCRGHDRTC-NH2, the cyclisation yield came out at 6%.

Still in this data set, the particulars now being: cyclisation step, thioether ring, sequence written open.
As to H-SQCKRAHAEC-NH2, the cyclisation yield worked out at 10%.

In turn, H-STCQGECGGG-NH2 came in with a cyclisation yield of 19%.

Turning to H-SWDYRECYLEC-NH2, the cyclisation yield stood at 12%.

As for H-SYCKRAHKNC-NH2, the cyclisation yield turned out to be 32%.
